Data on 14 molecules can be found in doi:10.1101/2021.12.08.471875.

Chains of the proteins cited; added tags and fusions are not shown.
UniProt P0ACB0: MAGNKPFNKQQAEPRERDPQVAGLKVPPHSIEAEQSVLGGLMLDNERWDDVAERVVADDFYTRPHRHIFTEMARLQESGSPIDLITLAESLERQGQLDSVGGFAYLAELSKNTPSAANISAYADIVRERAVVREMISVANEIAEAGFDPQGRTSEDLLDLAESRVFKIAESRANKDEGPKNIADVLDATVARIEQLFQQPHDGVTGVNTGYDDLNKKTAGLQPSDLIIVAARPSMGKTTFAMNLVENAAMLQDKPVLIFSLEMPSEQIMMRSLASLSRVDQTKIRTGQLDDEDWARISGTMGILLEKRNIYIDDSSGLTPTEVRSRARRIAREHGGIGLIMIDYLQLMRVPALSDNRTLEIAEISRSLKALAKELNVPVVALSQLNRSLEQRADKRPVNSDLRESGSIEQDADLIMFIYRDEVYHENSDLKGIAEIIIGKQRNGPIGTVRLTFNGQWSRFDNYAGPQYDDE
UniProt P28632: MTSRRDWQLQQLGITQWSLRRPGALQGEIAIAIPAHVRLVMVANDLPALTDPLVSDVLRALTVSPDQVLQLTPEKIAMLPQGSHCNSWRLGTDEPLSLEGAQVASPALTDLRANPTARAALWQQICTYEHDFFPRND
UniProt P0ABS5: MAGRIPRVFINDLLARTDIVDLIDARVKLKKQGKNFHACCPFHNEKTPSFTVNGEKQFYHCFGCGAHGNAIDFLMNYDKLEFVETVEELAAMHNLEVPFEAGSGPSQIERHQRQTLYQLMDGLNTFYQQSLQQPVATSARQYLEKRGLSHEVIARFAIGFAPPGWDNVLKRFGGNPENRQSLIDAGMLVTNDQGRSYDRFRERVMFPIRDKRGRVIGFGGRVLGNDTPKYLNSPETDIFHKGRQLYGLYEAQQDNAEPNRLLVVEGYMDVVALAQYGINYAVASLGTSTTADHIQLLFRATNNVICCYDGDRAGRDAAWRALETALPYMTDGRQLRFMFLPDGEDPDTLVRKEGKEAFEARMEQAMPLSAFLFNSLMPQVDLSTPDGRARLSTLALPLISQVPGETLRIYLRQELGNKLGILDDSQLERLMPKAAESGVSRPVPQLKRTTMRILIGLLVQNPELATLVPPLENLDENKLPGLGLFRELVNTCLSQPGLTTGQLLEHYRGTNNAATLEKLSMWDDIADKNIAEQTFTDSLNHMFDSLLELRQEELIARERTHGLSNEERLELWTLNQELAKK
UniProt P09980: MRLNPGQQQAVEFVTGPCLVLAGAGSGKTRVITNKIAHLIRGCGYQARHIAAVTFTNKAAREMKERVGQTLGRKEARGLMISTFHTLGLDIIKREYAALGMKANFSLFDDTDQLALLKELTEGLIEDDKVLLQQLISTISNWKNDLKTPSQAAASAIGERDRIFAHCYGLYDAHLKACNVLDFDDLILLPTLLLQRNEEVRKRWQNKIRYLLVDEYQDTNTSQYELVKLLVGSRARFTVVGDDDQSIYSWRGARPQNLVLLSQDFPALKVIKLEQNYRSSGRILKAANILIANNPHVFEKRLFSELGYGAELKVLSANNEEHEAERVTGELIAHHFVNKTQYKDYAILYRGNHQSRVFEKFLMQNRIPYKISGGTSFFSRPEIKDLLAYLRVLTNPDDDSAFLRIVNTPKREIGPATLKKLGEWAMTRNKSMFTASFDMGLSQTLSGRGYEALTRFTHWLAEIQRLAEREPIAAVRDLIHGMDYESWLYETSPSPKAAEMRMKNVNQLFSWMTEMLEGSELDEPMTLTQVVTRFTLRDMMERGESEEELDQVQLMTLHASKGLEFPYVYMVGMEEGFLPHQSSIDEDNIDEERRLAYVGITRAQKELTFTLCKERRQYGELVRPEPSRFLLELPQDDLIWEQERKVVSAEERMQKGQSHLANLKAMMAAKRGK
UniProt P56258: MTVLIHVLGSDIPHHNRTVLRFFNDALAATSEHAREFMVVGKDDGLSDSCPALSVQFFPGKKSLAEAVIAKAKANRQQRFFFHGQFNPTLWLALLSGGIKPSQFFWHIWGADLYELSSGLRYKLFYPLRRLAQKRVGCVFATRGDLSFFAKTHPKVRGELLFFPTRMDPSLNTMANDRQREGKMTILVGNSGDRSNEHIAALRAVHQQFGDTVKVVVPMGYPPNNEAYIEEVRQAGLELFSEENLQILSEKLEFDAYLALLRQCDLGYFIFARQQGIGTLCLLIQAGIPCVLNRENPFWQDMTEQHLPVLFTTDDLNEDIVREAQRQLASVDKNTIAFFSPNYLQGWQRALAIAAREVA
UniProt P21513: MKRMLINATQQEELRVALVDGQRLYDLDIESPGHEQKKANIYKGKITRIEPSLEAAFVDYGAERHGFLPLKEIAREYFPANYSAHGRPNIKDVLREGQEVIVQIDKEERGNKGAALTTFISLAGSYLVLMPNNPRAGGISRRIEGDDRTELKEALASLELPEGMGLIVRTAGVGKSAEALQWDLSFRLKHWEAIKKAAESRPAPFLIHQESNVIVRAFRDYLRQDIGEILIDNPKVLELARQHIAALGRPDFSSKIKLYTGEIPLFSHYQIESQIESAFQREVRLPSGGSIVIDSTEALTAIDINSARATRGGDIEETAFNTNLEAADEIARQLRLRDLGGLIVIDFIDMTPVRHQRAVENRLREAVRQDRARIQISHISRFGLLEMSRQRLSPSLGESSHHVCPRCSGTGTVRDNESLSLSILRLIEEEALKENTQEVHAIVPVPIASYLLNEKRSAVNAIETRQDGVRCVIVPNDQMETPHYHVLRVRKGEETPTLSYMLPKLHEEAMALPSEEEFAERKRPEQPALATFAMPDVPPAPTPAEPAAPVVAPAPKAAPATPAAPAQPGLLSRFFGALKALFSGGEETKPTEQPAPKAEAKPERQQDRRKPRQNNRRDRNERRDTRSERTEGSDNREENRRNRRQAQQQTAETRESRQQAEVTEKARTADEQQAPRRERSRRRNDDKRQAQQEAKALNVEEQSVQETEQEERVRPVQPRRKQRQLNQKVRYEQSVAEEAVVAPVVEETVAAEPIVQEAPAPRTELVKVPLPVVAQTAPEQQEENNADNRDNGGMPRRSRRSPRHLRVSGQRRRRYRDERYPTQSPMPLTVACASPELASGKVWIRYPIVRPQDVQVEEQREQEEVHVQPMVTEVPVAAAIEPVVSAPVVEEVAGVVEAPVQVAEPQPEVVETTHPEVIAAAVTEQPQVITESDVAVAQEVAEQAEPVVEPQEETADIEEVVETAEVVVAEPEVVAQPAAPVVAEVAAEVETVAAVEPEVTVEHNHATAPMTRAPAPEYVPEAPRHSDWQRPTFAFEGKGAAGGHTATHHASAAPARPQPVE
UniProt P0AB89: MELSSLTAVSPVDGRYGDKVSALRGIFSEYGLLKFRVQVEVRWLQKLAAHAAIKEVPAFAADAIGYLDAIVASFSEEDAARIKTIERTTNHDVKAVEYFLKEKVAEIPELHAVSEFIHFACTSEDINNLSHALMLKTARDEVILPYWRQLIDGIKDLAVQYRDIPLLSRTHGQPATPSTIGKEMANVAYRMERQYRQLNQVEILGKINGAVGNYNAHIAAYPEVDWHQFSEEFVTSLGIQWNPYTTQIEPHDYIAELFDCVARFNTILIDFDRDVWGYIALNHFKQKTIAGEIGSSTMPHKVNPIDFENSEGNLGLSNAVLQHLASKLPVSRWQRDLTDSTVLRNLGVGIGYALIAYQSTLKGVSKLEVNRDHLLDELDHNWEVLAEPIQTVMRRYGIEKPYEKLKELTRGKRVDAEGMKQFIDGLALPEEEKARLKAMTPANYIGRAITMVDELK

Holding throughout (experiment): affinity purification with mass spectrometry
Assay [1] addresses DnaB (E. coli) (UniProt P0ACB0).
The target in assay [2] is HolD (E. coli) (UniProt P28632).
In assay [3] the target is T1, SeqA (E. coli) (UniProt P0AFY8).
T1 sequence: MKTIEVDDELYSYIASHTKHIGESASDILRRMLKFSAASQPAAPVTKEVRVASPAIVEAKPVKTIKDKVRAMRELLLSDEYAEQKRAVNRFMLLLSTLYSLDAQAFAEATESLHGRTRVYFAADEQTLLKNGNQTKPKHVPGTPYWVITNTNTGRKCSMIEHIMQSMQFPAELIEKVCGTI

Assay [4] deals with DnaB (E. coli) (UniProt P0ACB0). The source holds these as a separate data set.
Assay [5] has as its target T1, SeqA (E. coli). The source holds these as a separate data set.
In another assay the target is DnaG (E. coli) (UniProt P0ABS5).
The target in assay [6] is HolD (E. coli) (UniProt P28632). This is another data set of the same source.
For assay [7], the target named is T2, NrdB, a ribonuclotide reductase (RNR) subunit (E. coli) (UniProt P69924).
T2 sequence: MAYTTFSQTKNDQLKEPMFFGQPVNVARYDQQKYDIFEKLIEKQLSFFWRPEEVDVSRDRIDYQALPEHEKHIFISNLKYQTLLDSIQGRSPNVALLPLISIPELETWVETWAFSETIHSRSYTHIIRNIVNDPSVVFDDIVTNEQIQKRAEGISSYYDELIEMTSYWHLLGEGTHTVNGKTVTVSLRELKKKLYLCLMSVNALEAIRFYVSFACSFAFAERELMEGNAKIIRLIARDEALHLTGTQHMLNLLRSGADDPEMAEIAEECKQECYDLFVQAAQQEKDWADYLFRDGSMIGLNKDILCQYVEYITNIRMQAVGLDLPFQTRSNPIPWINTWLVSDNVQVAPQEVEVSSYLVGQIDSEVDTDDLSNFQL

Where two headings read alike, the source gives them in different places. Results are given in words; binding and its absence hold for the method and conditions named. In cells and extracts the contact can be indirect. These calls come from enrichment with a bait or labelling near it, and not all partners need be listed. For some of these results: A no says only that the protein was not detected with the bait.

On to Rep (from UniProt P09980 1-673), for which, in the assay with DnaB (E. coli) [1], the binding entry is reported as “binds”.

Regarding “WecF (from UniProt P56258 1-359) (enzyme)”, the binding entry with HolD (E. coli) [2] is “binds”.

Turning to DnaB (from UniProt P0ACB0 1-471), the binding entry with SeqA (E. coli) [3] is reported as “no binding”.

In the case of “RNase E (Rne) (from UniProt P21513 1-1061) (enzyme)”, in the assay with DnaB (E. coli) [1], the binding result was “binds”.

For DnaG (from UniProt P0ABS5 1-581), the binding entry in the assay with SeqA (E. coli) [3] was “binds”.

On to “PurB (from UniProt P0AB89 1-456) (enzyme)”, for which, in the assay with HolD (E. coli) [2], the binding entry was “binds”.

B1: DnaC (protein, UniProt P0AEF0 1-245)
chain: MKNVGDLMQRLQKMMPAHIKPAFKTGEELLAWQKEQGAIRSAALERENRAMKMQRTFNRSGIRPLHQNCSFENYRVECEGQMNALSKARQYVEEFDGNIASFIFSGKPGTGKNHLAAAICNELLLRGKSVLIITVADIMSAMKDTFRNSGTSEEQLLNDLSNVDLLVIDEIGVQTESKYEKVIINQIVDRRSSSKRPTGMLTNSNMEEMTKLLGERVMDRMRLGNSLWVIFNWDSYRSRVTGKEY
Consider B1, for which the binding entry with DnaB (E. coli) [4] is on record as “binds”.

B2: polyphosphate kinase (Ppk) (enzyme, UniProt P0A7B1 1-688)
chain: MGQEKLYIEKELSWLSFNERVLQEAADKSNPLIERMRFLGIYSNNLDEFYKVRFAELKRRIIISEEQGSNSHSRHLLGKIQSRVLKADQEFDGLYNELLLEMARNQIFLINERQLSVNQQNWLRHYFKQYLRQHITPILINPDTDLVQFLKDDYTYLAVEIIRGDTIRYALLEIPSDKVPRFVNLPPEAPRRRKPMILLDNILRYCLDDIFKGFFDYDALNAYSMKMTRDAEYDLVHEMEASLMELMSSSLKQRLTAEPVRFVYQRDMPNALVEVLREKLTISRYDSIVPGGRYHNFKDFINFPNVGKANLVNKPLPRLRHIWFDKAQFRNGFDAIRERDVLLYYPYHTFEHVLELLRQASFDPSVLAIKINIYRVAKDSRIIDSMIHAAHNGKKVTVVVELQARFDEEANIHWAKRLTEAGVHVIFSAPGLKIHAKLFLISRKENGEVVRYAHIGTGNFNEKTARLYTDYSLLTADARITNEVRRVFNFIENPYRPVTFDYLMVSPQNSRRLLYEMVDREIANAQQGLPSGITLKLNNLVDKGLVDRLYAASSSGVPVNLLVRGMCSLIPNLEGISDNIRAISIVDRYLEHDRVYIFENGGDKKVYLSSADWMTRNIDYRIEVATPLLDPRLKQRVLDIIDILFSDTVKARYIDKELSNRYVPRGNRRKVRAQLAIYDYIKSLEQPE
With B2, the binding result with DnaB (E. coli) [4] and in the assay with SeqA (E. coli) [5] was “binds” throughout.

B3: SeqA (protein, UniProt P0AFY8 1-181)
chain: MKTIEVDDELYSYIASHTKHIGESASDILRRMLKFSAASQPAAPVTKEVRVASPAIVEAKPVKTIKDKVRAMRELLLSDEYAEQKRAVNRFMLLLSTLYSLDAQAFAEATESLHGRTRVYFAADEQTLLKNGNQTKPKHVPGTPYWVITNTNTGRKCSMIEHIMQSMQFPAELIEKVCGTI
In the case of B3, in the assay with DnaG (E. coli), the binding result is given as “binds”.

B4: RfaF (enzyme, UniProt P37692 1-348)
chain: MKILVIGPSWVGDMMMSQSLYRTLQARYPQAIIDVMAPAWCRPLLSRMPEVNEAIPMPLGHGALEIGERRKLGHSLREKRYDRAYVLPNSFKSALVPFFAGIPHRTGWRGEMRYGLLNDVRVLDKEAWPLMVERYIALAYDKGIMRTAQDLPQPLLWPQLQVSEGEKSYTCNQFSLSSERPMIGFCPGAEFGPAKRWPHYHYAELAKQLIDEGYQVVLFGSAKDHEAGNEILAALNTEQQAWCRNLAGETQLDQAVILIAACKAIVTNDSGLMHVAAALNRPLVALYGPSSPDFTPPLSHKARVIRLITGYHKVRKGDAAEGYHQSLIDITPQRVLEELNALLLQEEA
For the molecule B4, the binding entry (in the assay with HolD (E. coli) [6]; with DnaB (E. coli) [4]; with SeqA (E. coli) [5]; in assay [7]) was “binds” throughout.

B5: RhlB (enzyme, UniProt P0A8J8 1-421)
chain: MSKTHLTEQKFSDFALHPKVVEALEKKGFHNCTPIQALALPLTLAGRDVAGQAQTGTGKTMAFLTSTFHYLLSHPAIADRKVNQPRALIMAPTRELAVQIHADAEPLAEATGLKLGLAYGGDGYDKQLKVLESGVDILIGTTGRLIDYAKQNHINLGAIQVVVLDEADRMYDLGFIKDIRWLFRRMPPANQRLNMLFSATLSYRVRELAFEQMNNAEYIEVEPEQKTGHRIKEELFYPSNEEKMRLLQTLIEEEWPDRAIIFANTKHRCEEIWGHLAADGHRVGLLTGDVAQKKRLRILDEFTRGDLDILVATDVAARGLHIPAVTHVFNYDLPDDCEDYVHRIGRTGRAGASGHSISLACEEYALNLPAIETYIGHSIPVSKYNPDALMTDLPKPLRLTRPRTGNGPRRTGAPRNRRRSG
In the case of B5, the binding result with DnaB (E. coli) [4] was “binds”.

B6: SrmB (enzyme, UniProt P21507 1-444)
chain: MTVTTFSELELDESLLEALQDKGFTRPTAIQAAAIPPALDGRDVLGSAPTGTGKTAAYLLPALQHLLDFPRKKSGPPRILILTPTRELAMQVSDHARELAKHTHLDIATITGGVAYMNHAEVFSENQDIVVATTGRLLQYIKEENFDCRAVETLILDEADRMLDMGFAQDIEHIAGETRWRKQTLLFSATLEGDAIQDFAERLLEDPVEVSANPSTRERKKIHQWYYRADDLEHKTALLVHLLKQPEATRSIVFVRKRERVHELANWLREAGINNCYLEGEMVQGKRNEAIKRLTEGRVNVLVATDVAARGIDIPDVSHVFNFDMPRSGDTYLHRIGRTARAGRKGTAISLVEAHDHLLLGKVGRYIEEPIKARVIDELRPKTRAPSEKQTGKPSKKVLAKRAEKKKAKEKEKPRVKKRHRDTKNIGKRRKPSGTGVPPQTTEE
For the molecule B6, the binding result in the assay with SeqA (E. coli) [5] and in the assay with DnaG (E. coli) was “binds” throughout.

B7: SspA (protein, UniProt P0ACA3 1-212)
chain: MAVAANKRSVMTLFSGPTDIYSHQVRIVLAEKGVSFEIEHVEKDNPPQDLIDLNPNQSVPTLVDRELTLWESRIIMEYLDERFPHPPLMPVYPVARGESRLYMHRIEKDWYTLMNTIINGSASEADAARKQLREELLAIAPVFGQKPYFLSDEFSLVDCYLAPLLWRLPQLGIEFSGPGAKELKGYMTRVFERDSFLASLTEAEREMRLGRS
With B7, the binding result in the assay with HolD (E. coli) [6] was “binds”.

B8: topoisomerase III (protein, UniProt P14294 1-653)
chain: MRLFIAEKPSLARAIADVLPKPHRKGDGFIECGNGQVVTWCIGHLLEQAQPDAYDSRYARWNLADLPIVPEKWQLQPRPSVTKQLNVIKRFLHEASEIVHAGDPDREGQLLVDEVLDYLQLAPEKRQQVQRCLINDLNPQAVERAIDRLRSNSEFVPLCVSALARARADWLYGINMTRAYTILGRNAGYQGVLSVGRVQTPVLGLVVRRDEEIENFVAKDFFEVKAHIVTPADERFTAIWQPSEACEPYQDEEGRLLHRPLAEHVVNRISGQPAIVTSYNDKRESESAPLPFSLSALQIEAAKRFGLSAQNVLDICQKLYETHKLITYPRSDCRYLPEEHFAGRHAVMNAISVHAPDLLPQPVVDPDIRNRCWDDKKVDAHHAIIPTARSSAINLTENEAKVYNLIARQYLMQFCPDAVFRKCVIELDIAKGKFVAKARFLAEAGWRTLLGSKERDEENDGTPLPVVAKGDELLCEKGEVVERQTQPPRHFTDATLLSAMTGIARFVQDKDLKKILRATDGLGTEATRAGIIELLFKRGFLTKKGRYIHSTDAGKALFHSLPEMATRPDMTAHWESVLTQISEKQCRYQDFMQPLVGTLYQLIDQAKRTPVRQFRGIVAPGSGGSADKKKAAPRKRSAKKSPPADEVGSGAIA
On to B8, for which the binding result with HolD (E. coli) [6] is on record as “binds”.
